For 67 molecules, AC50 results are on record in PubChem BioAssay AID662 (National Center for Advancing Translational Sciences (NCATS), 2007).

The list shows a part of the results. These are further read-outs of the screen, such as a control signal, another cell line or another target. No call is given for them. Compounds called inactive in the main read-out are mostly missing here. The note in brackets gives the kind of curve behind each potency; many fits are weak.

The experiment can be described thus: Cell signaling CRE-BLA (Fsk stim). Particulars: CHO CRE-bla reporter (cAMP response element driving beta-lactamase), forskolin EC10, beta-lactamase ratio; measured here: 460 nm blue channel. In a few lines:
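CRE-bla CHO cells stimulated with EC10 NKH 477 (water-soluble forskolin) and compound titrations, 3 h at 37C; beta-lactamase read with CCF4 after 2 h at room temperature. Activity from 460/530 nm emission ratio, AC50 values for positive or negative modulation.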
As usually defined, the AC50 is the concentration at which the activity in the assay is half-maximal. On to `N=c1c(C(=O)NCc2ccc3c(c2)OCO3)cc2c(=O)n3ccccc3nc2n1Cc1cccnc1`, for which the AC50 is 12.6 µM [rising, partial curve].

Turning to `Cc1cc(C)c(S(=O)(=O)NCC2CCC(C(=O)NCCCN3CCOCC3)CC2)c(C)c1` (configuration not stated), the AC50 is 3.16 µM [falling, single point].

With `CCOc1ccc(C2C(C#N)=C(N)SC(N)=C2C#N)cc1OCC`, the AC50 is 7.94 µM [rising, partial curve].

On to `CCOC(=O)Cc1csc(NC(=O)c2ccc(S(=O)(=O)N3CCCCC3)cc2)n1`, for which the AC50 is 1.26 µM [rising, full curve].

As to `CCCn1c(=O)c2ccccc2n2c(SCCOc3ccccc3)nnc12`, the AC50 is 10 µM [rising, partial curve].

Take `CC(=O)c1cccc(NC(=O)C2CCCN(S(=O)(=O)c3ccccc3)C2)c1` (configuration not stated): the AC50 is 0.00398 µM [falling, full curve, poor fit].

`CCOC(=O)C1CCCN(CC(=O)Nc2c(C(=O)OC)[nH]c3ccccc23)C1` (configuration not stated): the AC50 is 12.6 µM [rising, partial curve].

On to `Cc1cccc(NC(=O)C2c3ccccc3C(=O)N3CCc4ccccc4C23)n1` (configuration not stated), for which the AC50 is 0.316 µM [falling, partial curve].

Consider `Cc1ccc(S(=O)(=O)CCC(=O)c2ccc(O)cc2O)cc1`, for which the half-maximal activity concentration (AC50) is 12.6 µM [falling, partial curve].

As for `CCC1(c2ccccc2)C(=O)NCNC1=O`, the AC50 is 15.8 µM [falling, single point].

On to `Cn1c(=O)c(CCc2ccccc2)nc2cnc(Nc3ccccc3)nc21`, for which the AC50 was 3.16 µM [rising, full curve].

As to `O=c1cc(-c2c(F)c(F)c(F)c(F)c2F)oc2c(F)c(F)c(F)c(F)c12`, the AC50 was 5.01 µM [falling, full curve].

`O=S(=O)(c1ccc(Br)c2nsnc12)N1CCOCC1`: the AC50 is 10 µM [falling, partial curve].

In the case of `Cn1c(=O)cc(OCCCC(=O)Nc2ccccn2)c2ccccc21`, the AC50 is 25.1 µM [rising, single point].

`Cc1ccc(N(C(=O)c2ccc(S(=O)(=O)N3CCOCC3)cc2)C2C=CS(=O)(=O)C2)cc1` (configuration not stated): the AC50 was 0.0398 µM [falling, full curve, poor fit].

Turning to `O=C(COC(=O)c1ccccc1NC(=O)c1ccco1)NCCC1=CCCCC1`, the AC50 is 25.1 µM [rising, single point].

Take `C=CCn1c(=O)[nH]c2cc(C(=O)N3CCN(c4cccc(Cl)c4)CC3)ccc2c1=O`: the AC50 is 0.2 µM [rising, full curve].

`COc1ccc(C2C3=C(CCCC3=O)Nc3nc(C(F)(F)F)nn32)cc1OC` (configuration not stated): the AC50 is 0.00794 µM [falling, full curve, poor fit].

As for `COc1cc(OC)cc(-c2cc3nc(C)c(CCC(=O)O)c(C)n3n2)c1`, the AC50 is 12.6 µM [rising, partial curve].

For the molecule `O=c1c2c(nc3n1CCCCC3)sc1c(O)cccc12`, the AC50 was 25.1 µM [rising, single point].

For `O=C(Nc1cccc2c1C(=O)NC2=O)c1ccc(S(=O)(=O)N2CCCC2)cc1`, the AC50 was 10 µM [rising, partial curve].

Consider `CCn1c(CSc2nccn2C)nc2cc(C(=O)O)ccc21`, for which the AC50 is 20 µM [rising, single point].

As for `COC(=O)[C@@]1(Cc2ccc(OC)cc2)[C@H]2c3cc(C(=O)N(C)C)n(Cc4nc5ccccc5[nH]4)c3C[C@H]2CN1C(=O)c1ccccc1`, the AC50 was 12.6 µM [rising, partial curve].

As to `Cc1nc2cnc(N(C)C)nc2n(Cc2ccc(F)cc2)c1=O`, the AC50 is 2.51 µM [rising, full curve].

Take `O=C(COc1ccccc1)Nn1cnc2ccccc21`: the AC50 is 0.00501 µM [falling, full curve, poor fit].

Take `COC(=O)c1ccccc1NC(=O)CN(C1CCCCC1)S(C)(=O)=O`: the AC50 was 2 µM [rising, full curve].

Turning to `CCOc1ccc(C(N)=O)cc1OC`, the AC50 was 0.00398 µM [falling, full curve, poor fit].

For `Cc1ccc(NC(=O)CSc2nnc(-c3ccccc3C)o2)cc1C`, the AC50 is 0.00398 µM [falling, full curve, poor fit].

As for `CCOC(=O)c1c(C)oc2cc(Br)c(O)c(Br)c12`, the AC50 is 12.6 µM [rising, partial curve].

Turning to `N#CCCn1c(=O)c(-c2cc(F)cc(F)c2)nc2cnc(Nc3ccccc3)nc21`, the AC50 is 1.26 µM [rising, full curve, poor fit].

For the molecule `O=C(NC12CC3CC(CC(C3)C1)C2)c1cc2nc(-c3ccco3)cc(C(F)(F)F)n2n1`, the AC50 was 3.98 µM [rising, full curve].

With `COC(=O)C1=C(C)N(c2ccc(F)cc2)C(=O)C1`, the AC50 is 10 µM [falling, partial curve].

For `O=C(Nc1nc2c(s1)CCc1ccccc1-2)c1cccs1`, the AC50 was 25.1 µM [rising, single point].

On to `COc1ccc(N(CC(=O)Nc2ccc3c(c2)OCCO3)S(=O)(=O)c2c(C)noc2C)cc1`, for which the AC50 is 0.0794 µM [rising, full curve, poor fit].

As for `O=S(=O)(NCc1ccncc1)c1ccc(S(=O)(=O)NCC2CCCO2)cc1` (configuration not stated), the AC50 was 0.126 µM [falling, partial curve, poor fit].

For `COC(=O)C1=C(C)N(c2cccc(Cl)c2)C(=O)C1`, the AC50 is 12.6 µM [falling, partial curve].

With `COc1ccc(-c2nc3scc(-c4ccccc4)n3n2)cc1`, the AC50 is 12.6 µM [falling, partial curve].

Turning to `COc1cccc(CNC(=O)CCCNS(=O)(=O)c2cccs2)c1`, the AC50 was 20 µM [falling, single point].

As for `Cc1sc2nc(SCC(=O)NCCOCCO)n(C)c(=O)c2c1C`, the AC50 is 0.00398 µM [falling, full curve].

As for `COCCNC(=O)CN1CCN(C(c2ccccc2)c2ccccc2)CC1`, the AC50 is 0.501 µM [falling, full curve].

As to `CCn1c2ccccc2c2cc(Nc3cc(C)nc4ncnn34)ccc21`, the AC50 was 0.631 µM [rising, full curve].

`Cc1ccc(O)c(C(=O)CC(=O)c2cccc(F)c2)c1`: the AC50 was 3.16 µM [falling, partial curve].

As for `COc1ccccc1C(=O)Nc1ccc2oc(-c3ccc(F)cc3)nc2c1`, the AC50 is 12.6 µM [rising, partial curve].

As for `Cc1ccc(S(=O)(=O)NCC2CCC(C(=O)NCc3ccco3)CC2)cc1` (configuration not stated), the AC50 was 5.01 µM [falling, full curve, poor fit].

Regarding `COC(=O)C1CCN(C(=O)COc2cc3sc(C)nc3c3sccc23)CC1`, the AC50 was 12.6 µM [rising, partial curve].

As for `CCOc1ccc(OCC)c(NS(=O)(=O)c2ccc3c(c2)n(C)c(=O)c(=O)n3C)c1`, the AC50 is 3.16 µM [rising, single point].

Turning to `COc1cccc(-c2cc(NCc3cnc(C)cn3)ncn2)c1`, the AC50 is 10 µM [rising, partial curve].

Regarding `N#CCCn1c(=O)c(-c2cccs2)nc2cnc(Oc3ccccc3)nc21`, the AC50 is 7.94 µM [rising, partial curve].

Regarding `O=c1c2cccc3c2c(nn1CN1CCOCC1)-c1ccccc1-3`, the AC50 is 12.6 µM [rising, partial curve].

In the case of `N#C/C(=C(/O)CN1C(=O)c2ccccc2C1=O)c1nc2ccccc2[nH]1`, the AC50 was 15.8 µM [rising, partial curve].

Regarding `Cc1ccc(-n2nnnc2SCC(=O)NCCC2=CCCCC2)c(C)c1`, the AC50 was 20 µM [falling, single point].

Regarding `O=C(Cc1c(C(=O)O)[nH]c2ccc(Cl)cc12)Nc1ccc2c(c1)OCCO2`, the concentration at half-maximal activity (AC50) is 2.51 µM [falling, partial curve].

`COc1ccc(Oc2ncc3nc(-c4ccc(Cl)cc4)c(=O)n(C[C@H]4CCCO4)c3n2)cc1`: the AC50 is 0.398 µM [rising, single point].

Regarding `CCOC(=O)c1c(-c2ccccc2)csc1NC(=O)CSc1nnnn1C`, the AC50 is 1 µM [rising, full curve].

As to `O=C(COC(=O)c1ccco1)NCc1cccs1`, the AC50 was 0.316 µM [falling, partial curve].

Consider `COc1ccc(-c2nc(-c3ccccc3OC)no2)cc1OC`, for which the AC50 is 0.631 µM [rising, full curve].

As for `C=CCn1c(Br)nc2c1c(=O)n(C)c(=O)n2C`, the AC50 is 12.6 µM [rising, single point].

As for `Cc1ccc(C)c(Cn2nnc3c(=O)[nH]c(C4CCN(C(=O)c5cccs5)CC4)nc32)c1`, the AC50 was 10 µM [rising, partial curve].

Consider `Oc1c(C(c2ccccc2)N2CCc3ccccc3C2)sc2ncnn12` (configuration not stated), for which the AC50 is 25.1 µM [rising, single point].

Take `C=CCc1c(C)nc(SC)nc1Nc1ccc(C(C)=O)cc1`: the AC50 is 10 µM [rising, partial curve].

Consider `Cc1ccn2cc(CNS(=O)(=O)c3ccc(Cl)s3)nc2c1`, for which the AC50 was 5.01 µM [rising, partial curve].

As to `CN1CCN(c2ncc3nc(-c4cc(F)cc(F)c4)c(=O)n(C)c3n2)CC1`, the AC50 is 12.6 µM [rising, partial curve].

Take `O=C(NCc1ccco1)c1cc(-c2ccc(Cl)cc2)on1`: the AC50 is 0.00794 µM [falling, full curve].

With `CCN(CC)S(=O)(=O)c1cc(C(=O)Nc2nncs2)c(Cl)cc1Cl`, the AC50 was 5.01 µM [falling, full curve].

Take `COc1cccc(Cn2c(=O)c(-c3cccs3)nc3cnc(N4CCOCC4)nc32)c1`: the AC50 is 10 µM [rising, partial curve].

As to `CCCCn1c(SCC(=O)Nc2ccc3c(c2)OCO3)nc2c1c(=O)n(C)c(=O)n2C`, the AC50 was 5.01 µM [rising, full curve].

On to `CC(C)Sc1nc(N)c2c3c(sc2n1)CN(C)CC3`, for which the AC50 is 5.01 µM [falling, partial curve].
